From PubChem BioAssay AID504467 (National Center for Advancing Translational Sciences (NCATS), 2011)
Out of some 330,000 compounds screened, about 7,700 (2.3%) were called active. Inconclusive means that the source gave no clear call. Such entries were picked first, then a sample of the others. Calls come from the whole dose curve; as a rule, active = well fitted inhibition curve with a large enough effect; inconclusive = small, poorly fitted or top-dose-only effect, or effect the other way; inactive = flat fitted curve, though single readings scatter. Where the call is inconclusive, the potency comes from a doubtful curve fit.

assay: qHTS screen for small molecules that inhibit ELG1-dependent DNA repair in human embryonic kidney (HEK293T) cells expressing luciferase-tagged ELG1; settings: HEK293T ELG1-luciferase reporter, luminescence, 16 h, DNA damage induced by 5-fluorouridine; activity change, negative = inhibition: at 46.1 µM (top of the series); note: nearly all actives have a fitted effect of over 55% in size
Outline: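 5-Fluorouridine DNA damage + compound/DMSO, 2,000 cells/well, 16 h, 37 °C/5% CO2. ONE-Glo, 30 min RT, luminescence. Readout = decrease in reporter signal.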
% is set by controls: 0 for no effect and ±100 for the full control effect; potency is the fitted concentration of half-maximal effect.

Structure (SMILES) | activity change, negative = inhibition | Potency
Cc1ccc(-c2nn(CCC(N)=O)c(=O)c3ccccc23)cc1 | inactive: 14.8% | 
CCCSc1nc(SCC(=O)NCc2ccccc2)c2c3c(sc2n1)COC(C)(C)C3 |  | inconclusive: 3.66 µM [inhibitor, single point]
O=S(=O)(c1ccc(Cl)cc1)N1CCN=C1SCc1ccc(Cl)c(Cl)c1 | inactive: -2.68% | 
COc1cccc2cc(C(=O)Nc3cc(C)cc(C)c3)/c(=N/NS(=O)(=O)c3ccccc3)oc12 | inactive: 0% | 
CCCc1nc2ccccc2c(=O)n1/N=C/c1ccc(O)c(O)c1 |  | inconclusive: 23.1 µM [inhibitor, single point]
COc1ccc(N(C(=O)c2snc(C(N)=O)c2N)C(C(=O)NCC2CCCO2)c2ccc3ncccc3c2)cc1OC (centres undefined) | inactive: 15.4% | 
COC(=O)c1ccc(-c2ccc(C(c3c(C)[nH][nH]c3=O)c3c(C)[nH][nH]c3=O)o2)cc1 | inactive: -1.01% | 
CCN(CC)C(=O)CCCSc1nnc(Nc2ccccc2F)s1 |  | inconclusive: 6.51 µM [activator, single point]
Cc1ccc(S(=O)(=O)Nc2ccc(NC(=O)c3cccs3)cc2)cc1 |  | inconclusive: 9.2 µM [inhibitor, partial curve, poor fit]
Cc1ccc(C(=O)NNC(=O)c2ccc(C)cc2)cc1 |  | inconclusive: 18.3 µM [activator, single point]
O=C(Cc1ccccc1)c1ccc2c(c1)OCCO2 |  | inconclusive: 14.6 µM [activator, partial curve]
COc1cccc(OC)c1C(=O)NC(=S)NNC(=O)[C@H]1C[C@@H]1c1ccccc1 |  | inconclusive: 20.6 µM [inhibitor, partial curve, poor fit]
CCOC(=O)CC(=O)COc1nc2cc3c(nc2o1)CCCC3 |  | inconclusive: 14.1 µM [activator, single point]
O=C(Cn1c(COc2ccccc2)nc2ccccc21)Nc1cc(Cl)cc(Cl)c1 | inactive: 3.38% | 
Cc1ccc(Sc2cc(C)nc(-c3ccccn3)n2)cc1 |  | inconclusive: 29.1 µM [inhibitor, single point]
Cc1ccc(C)c(S(=O)(=O)Nc2ccc3oc(C)c(C(=O)O)c3c2)c1 |  | inconclusive: 32.6 µM [activator, partial curve, poor fit]
CC(O)CNc1ccc(-c2nn(C)c(=O)c3ccccc23)cc1[N+](=O)[O-] (centres undefined) |  | inconclusive: 29.1 µM [inhibitor, single point]
O=C(Nc1nnc(CCN2CCCCC2)s1)c1ccccc1Cl | inactive: 17.2% | 
Cc1ccc(C(=O)COC(=O)C2C3C=CC(C3)C2C(=O)OCC(=O)c2ccc(C)c(C)c2)cc1C (centres undefined) |  | active: 13 µM
CCOc1ccc(C(=O)OCC(=O)Nc2cccc(S(=O)(=O)N3CCCC3)c2)cc1 | inactive: -13.4% | 
O=C(NC1CC1)c1sc2cc(Cl)ccc2c1Cl |  | inconclusive: 11.2 µM [activator, partial curve, poor fit]
COc1ccccc1-c1nnc(SC(C(=O)c2c[nH]c3ccccc23)c2ccccc2)n1C (centres undefined) |  | inconclusive: 25.9 µM [inhibitor, single point]

Structure (SMILES) | activity change, negative = inhibition | Potency
O=C(CSc1nnnn1-c1ccccc1)c1ccc(O)cc1O |  | inconclusive: 32.6 µM [activator, partial curve, poor fit]
Cc1ccc(C)c(NC(=O)C2COc3ccccc3O2)c1 (centres undefined) |  | inconclusive: 29.1 µM [activator, single point]
CCOC(=O)/C=C/C(=O)Nc1ccccc1C(=O)NC1CCCCC1 | inactive: 0.692% | 
Cc1ccc(Nc2nc(N)c3ccccc3n2)cc1C |  | inconclusive: 1.64 µM [activator, partial curve]
N/C(=N\NC(=O)c1cccc(F)c1)c1cc2ccccc2oc1=O |  | inconclusive: 18.3 µM [activator, single point]
O=C(Nc1cccc2ccccc12)N1N=CCC1c1ccccc1 (centres undefined) |  | inconclusive: 20.6 µM [activator, partial curve]
C=CC(=O)NC(C)(C)CCN1CCOCC1 |  | inconclusive: 2.59 µM [inhibitor, full curve]
Cc1ccc(C(C(=O)NC2CCCCC2)N2CCCC2)cc1 (centres undefined) |  | inconclusive: 29.1 µM [inhibitor, single point]
CC(=O)N(C1=C(N)C(=O)c2ccccc2C1=O)c1ccccc1 |  | active: 18.3 µM
CCOC(=O)C1=C(COC(=O)COc2ccc(OCC)cc2)NC(=O)NC1C (centres undefined) |  | inconclusive: 9.2 µM [activator, single point]
Cc1ccc(NC(=O)CC(=O)c2ccccc2)cc1C |  | inconclusive: 20.6 µM [activator, partial curve]
CCC(=O)Nc1nnc(S(=O)(=O)N(C)c2cc(C)cc(C)c2)s1 | inactive: 9.82% | 
OCCN1CCN(c2ncnc3c2sc2nc(N4CCOCC4)c4c(c23)CCC4)CC1 |  | inconclusive: 18.4 µM [inhibitor, partial curve, poor fit]
CC(NC(=O)c1ccccc1SCC(=O)N1CCCC1)c1ccc(F)cc1 (centres undefined) | inactive: -11.3% | 
COc1ccc(-n2nc(C(=O)NCC(=O)N3CCN(c4ccccc4OC)CC3)c3ccccc3c2=O)cc1OC |  | active: 16.4 µM
O=S(=O)(Nc1nc2ccccc2nc1NCC1CCCO1)c1cc(Cl)ccc1Cl (centres undefined) |  | inconclusive: 29.1 µM [inhibitor, partial curve, poor fit]
CC(C)(C)[C@H]1CCC(=O)N([C@H](CC#N)Cc2ccccc2)CC1 | inactive: 0.726% | 
COc1ccccc1N1CCN(/N=C/c2cc(Br)ccc2F)CC1 |  | inconclusive: 14.6 µM [activator, partial curve]
CCCC(=O)n1nc(-c2ccco2)nc1SCc1ccccc1 |  | inconclusive: 13 µM [activator, partial curve]
Cc1onc(-c2ccccc2)c1C(=O)Nc1sc2c(c1C#N)CCC2 |  | inconclusive: 20.6 µM [inhibitor, partial curve, poor fit]
C=CCn1c(=NC(=O)c2cc(-c3cccs3)nc3ccccc23)sc2cc(S(N)(=O)=O)ccc21 |  | active: 18.4 µM
Cc1ccc(S(=O)(=O)N2CCCC2)cc1C(=O)NCCN1CCOCC1 |  | inconclusive: 23.1 µM [activator, single point]

Quoted from the results shown (3 entries):
Structure (SMILES) | activity change, negative = inhibition | Potency
CCCc1nc2ccccc2c(=O)n1/N=C/c1ccc(O)c(O)c1 |  | inconclusive: 23.1 µM [inhibitor, single point]
COc1ccc(N(C(=O)c2snc(C(N)=O)c2N)C(C(=O)NCC2CCCO2)c2ccc3ncccc3c2)cc1OC (centres undefined) | inactive: 15.4% | 
COC(=O)c1ccc(-c2ccc(C(c3c(C)[nH][nH]c3=O)c3c(C)[nH][nH]c3=O)o2)cc1 | inactive: -1.01% | 
